Values from PubChem BioAssay AID743121 (NCATS, 2013)
Screen: 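Genes whose silencing strengthens cell killing by camptothecin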 (primary screen). System: MDA-MB-231 cells, a human breast cancer line. Reagents: single siRNA against human genes, 20 nM siRNA (0.8 pmol per well). Timing: 120 h (drug added 48 h after transfection, read 72 h later). Challenge: camptothecin 20 nM (about EC30) for 72 h; vehicle 0.1% DMSO in parallel plates. Measured: 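CellTiter-Glo ATP signal, scaled to control siRNA as percent viability; sensitisation given as log2 of untreated divided by camptothecin-treated viability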. Scale: log2 vehicle/camptothecin viability: higher = stronger sensitisation to camptothecin. Rule for the call: 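Each gene scored by redundant siRNA activity (RSA) over its individual siRNA ratios; a gene is called active at p < 0.001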.
In all, the deposit lists about 26,000 reagents; below is a part drawn at random. Over the whole deposit, 167 (0.63%) got an active call. 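Calls are per gene from RSA p-values that are not deposited; an individual active-marked siRNA can sensitise only weakly.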 Reagents against one gene are numbered here. Not all columns of the deposit are shown. No sequences are given here.

| gene symbol | reagent no. | log2 vehicle/camptothecin viability | Outcome |
| --- | --- | --- | --- |
| MYL3 (GeneID 4634) | 1 | 0.289 | inactive |
| MYL3 (GeneID 4634) | 2 | -0.361 | inactive |
| MYL3 (GeneID 4634) | 3 | -0.32 | inactive |
| MYL3 (GeneID 4634) | 4 | -0.0809 | inactive |
| DCBLD2 (GeneID 131566) | 1 | -0.34 | inactive |
| DCBLD2 (GeneID 131566) | 2 | -0.169 | inactive |
| DCBLD2 (GeneID 131566) | 3 | -0.0199 | inactive |
| DCBLD2 (GeneID 131566) | 4 | -0.0693 | inactive |
| GIT2 (GeneID 9815) | 1 | 0.621 | active |
| GIT2 (GeneID 9815) | 2 | 0.721 | active |
| GIT2 (GeneID 9815) | 3 | -0.125 | active |
| GIT2 (GeneID 9815) | 4 | 0.841 | active |
| ALDH5A1 (GeneID 7915) | 1 | -0.172 | inactive |
| ALDH5A1 (GeneID 7915) | 2 | 0.0293 | inactive |
| ALDH5A1 (GeneID 7915) | 3 | -0.018 | inactive |
| ALDH5A1 (GeneID 7915) | 4 | 0.112 | inactive |
| CDKL1 (GeneID 8814) | 1 | 0.0995 | inactive |
| CDKL1 (GeneID 8814) | 2 | -0.564 | inactive |
| CDKL1 (GeneID 8814) | 3 | -0.0171 | inactive |
| CDKL1 (GeneID 8814) | 4 | -0.189 | inactive |
| TCOF1 (GeneID 6949) | 1 | -0.227 | inactive |
| TCOF1 (GeneID 6949) | 2 | -0.418 | inactive |
| TCOF1 (GeneID 6949) | 3 | 0.588 | inactive |
| TCOF1 (GeneID 6949) | 4 | -0.944 | inactive |
| DLGAP5 (GeneID 9787) | 1 | -0.201 | inactive |
| DLGAP5 (GeneID 9787) | 2 | 0.709 | inactive |
| DLGAP5 (GeneID 9787) | 3 | 0.0753 | inactive |
| DLGAP5 (GeneID 9787) | 4 | 0.0206 | inactive |
| DLGAP5 (GeneID 9787) | 5 | -0.259 | inactive |
| DLGAP5 (GeneID 9787) | 6 | -0.122 | inactive |
| SNRPD3 (GeneID 6634) | 1 | -0.351 | inactive |
| SNRPD3 (GeneID 6634) | 2 | -0.415 | inactive |
| SNRPD3 (GeneID 6634) | 3 | -0.647 | inactive |
| SNRPD3 (GeneID 6634) | 4 | -0.557 | inactive |
| SLC25A45 (GeneID 283130) | 1 | 0.769 | inactive |
| SLC25A45 (GeneID 283130) | 2 | 0.176 | inactive |
| SLC25A45 (GeneID 283130) | 3 | -0.605 | inactive |
| USP5 (GeneID 8078) | 1 | 1 | active |
| USP5 (GeneID 8078) | 2 | 1.5 | active |
| USP5 (GeneID 8078) | 3 | 0.0118 | active |
| USP5 (GeneID 8078) | 4 | 0.418 | active |
| BCL2L14 (GeneID 79370) | 1 | -0.548 | inactive |
| BCL2L14 (GeneID 79370) | 2 | -0.0789 | inactive |
| BCL2L14 (GeneID 79370) | 3 | -0.111 | inactive |
| BCL2L14 (GeneID 79370) | 4 | -0.248 | inactive |
| BAIAP2 (GeneID 10458) | 1 | -0.455 | inactive |
| BAIAP2 (GeneID 10458) | 2 | -0.201 | inactive |
| BAIAP2 (GeneID 10458) | 3 | -0.441 | inactive |
| BAIAP2 (GeneID 10458) | 4 | 0.439 | inactive |
| GPR45 (GeneID 11250) | 1 | -0.174 | inactive |
| GPR45 (GeneID 11250) | 2 | 0.00835 | inactive |
| GPR45 (GeneID 11250) | 3 | -0.282 | inactive |
| GPR45 (GeneID 11250) | 4 | -0.299 | inactive |
| MYLIP (GeneID 29116) | 1 | -0.3 | inactive |
| MYLIP (GeneID 29116) | 2 | -0.554 | inactive |
| MYLIP (GeneID 29116) | 3 | -0.165 | inactive |
| UTRN (GeneID 7402) | 1 | -0.0432 | inactive |
| UTRN (GeneID 7402) | 2 | -0.263 | inactive |
| UTRN (GeneID 7402) | 3 | 0.289 | inactive |
| UTRN (GeneID 7402) | 4 | -0.273 | inactive |
| UBAC1 (GeneID 10422) | 1 | -0.141 | inactive |
| UBAC1 (GeneID 10422) | 2 | -0.0711 | inactive |
| UBAC1 (GeneID 10422) | 3 | -0.00454 | inactive |
| UBAC1 (GeneID 10422) | 4 | -0.0298 | inactive |
| ITGA2 (GeneID 3673) | 1 | -0.109 | inactive |
| ITGA2 (GeneID 3673) | 2 | -0.342 | inactive |
| ITGA2 (GeneID 3673) | 3 | -0.528 | inactive |
| ITGA2 (GeneID 3673) | 4 | -0.0247 | inactive |

Part of the list above in another layout:
SNRPD3 (GeneID 6634) #2 → log2 vehicle/camptothecin viability = -0.415; Outcome = inactive
SNRPD3 (GeneID 6634) #3 → log2 vehicle/camptothecin viability = -0.647; Outcome = inactive
SNRPD3 (GeneID 6634) #4 → log2 vehicle/camptothecin viability = -0.557; Outcome = inactive
SLC25A45 (GeneID 283130) #1 → log2 vehicle/camptothecin viability = 0.769; Outcome = inactive
SLC25A45 (GeneID 283130) #2 → log2 vehicle/camptothecin viability = 0.176; Outcome = inactive
SLC25A45 (GeneID 283130) #3 → log2 vehicle/camptothecin viability = -0.605; Outcome = inactive
USP5 (GeneID 8078) #1 → log2 vehicle/camptothecin viability = 1; Outcome = active
USP5 (GeneID 8078) #2 → log2 vehicle/camptothecin viability = 1.5; Outcome = active
USP5 (GeneID 8078) #3 → log2 vehicle/camptothecin viability = 0.0118; Outcome = active
USP5 (GeneID 8078) #4 → log2 vehicle/camptothecin viability = 0.418; Outcome = active
